PubChem BioAssay AID1224828 – NIAID | 2016

Test: 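Regulators linking TLR4 signalling to p65 nuclear translocation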 (primary screen)
Cells: mouse RAW264.7 G9 macrophage reporter cells (GFP-p65, Tnf promoter-mCherry)
Knock-down reagent: siRNA pool against mouse genes, 100 nM
Duration: 2 days siRNA transfection, then 40 min LPS before fixation
Conditions: LPS (Salmonella minnesota R595) at 10 ng/ml
Detection: 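Microscopy ratio of nuclear to perinuclear-ring GFP-p65 signal, scaled to the plate median; gene score is the average of two replicate robust z-scores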
Direction: p65 translocation robust z-score: higher = more nuclear NF-kappaB p65 after LPS than the plate median; nuclear/cytoplasmic p65 ratio: higher = more nuclear NF-kappaB p65
Call rule: 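Active if robust z is above 3.3 (negative regulators) or below -1.56, the Tlr4 control median (positive regulators); activity score 50 or more; control wells not called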
Calls: active = hit (p65 shift raised or lowered); inactive = no clear change
The whole screen tested about 17,000 reagents; this is a part drawn at random. 762 of all reagents (4.5%) were called active. 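Active calls include both raised and lowered p65 entry, mostly lowered; wells with fewer than 50 cells lack a z-score.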 Raw values are not corrected between plates.

| target gene | p65 translocation robust z-score | nuclear/cytoplasmic p65 ratio, rep 1 | nuclear/cytoplasmic p65 ratio, rep 2 | low cell count flag | Call |
| --- | --- | --- | --- | --- | --- |
| A830031A19Rik | 0.73 | 1.34 | 1.63 | enough cells to score | inactive |
| Vdac2 | -0.37 | 1.37 | 1.16 | enough cells to score | inactive |
| Fam107a | – | 1.18 | 1.24 | fewer than 50 cells per well; well left out of scoring | inactive |
| Or4c113 | -0.29 | 1.77 | 1.48 | enough cells to score | inactive |
| 6030452D12Rik | 1.03 | 1.39 | 1.7 | enough cells to score | inactive |
| Cnp | -0.5 | 1.51 | 1.71 | enough cells to score | inactive |
| Glrx5 | – | 1.32 | 1.45 | fewer than 50 cells per well; well left out of scoring | inactive |
| Dxo | – | 1.5 | 1.27 | fewer than 50 cells per well; well left out of scoring | inactive |
| Krt16 | -1.38 | 1.29 | 1.14 | enough cells to score | inactive |
| Gfm1 | -0.91 | 1.4 | 1.39 | enough cells to score | inactive |
| Gm4876 | 1.49 | 1.64 | 2.1 | enough cells to score | inactive |
| Dclre1c | -0.93 | 1.4 | 1.45 | enough cells to score | inactive |
| Cenpe | -0.56 | 1.39 | 1.31 | enough cells to score | inactive |
| Ackr4 | -0.65 | 1.47 | 1.43 | enough cells to score | inactive |
| Brms1 | 0.42 | 1.41 | 1.58 | enough cells to score | inactive |
| Nes | -0.05 | 1.74 | 1.61 | enough cells to score | inactive |
| Sele | 0.78 | 1.51 | 1.82 | enough cells to score | inactive |
| Acot4 | – | 1.58 | 1.23 | fewer than 50 cells per well; well left out of scoring | inactive |
| Xkr8 | -0.35 | 1.16 | 1.26 | enough cells to score | inactive |
| Akr1e1 | -1 | 1.49 | 1.45 | enough cells to score | inactive |
| Krtap19-5 | -1.89 | 1.29 | 1.17 | enough cells to score | active |
| Zfp85 | – | 1.18 | 1.11 | fewer than 50 cells per well; well left out of scoring | inactive |
| Gpn1 | -0.72 | 1.23 | 1.24 | enough cells to score | inactive |
| Kmt5a | 0.53 | 1.73 | 1.65 | enough cells to score | inactive |
| Rad21 | 0.85 | 1.79 | 1.49 | enough cells to score | inactive |
| Rnaseh2c | – | 1.68 | 1.73 | fewer than 50 cells per well; well left out of scoring | inactive |
| Pex13 | -0.77 | 1.2 | 1.3 | enough cells to score | inactive |
| Serpinb1a | -0.09 | 1.49 | 1.59 | enough cells to score | inactive |
| Cd8b1 | -1.37 | 1.36 | 1.21 | enough cells to score | inactive |
| Ash2l | -0.12 | 1.47 | 1.61 | enough cells to score | inactive |
| Magea6 | 0.14 | 1.68 | 1.62 | enough cells to score | inactive |
| Neil1 | -0.34 | 1.39 | 1.3 | enough cells to score | inactive |
| Gdpd1 | 0.06 | 1.39 | 1.48 | enough cells to score | inactive |
| Gc | -0.36 | 1.28 | 1.43 | enough cells to score | inactive |
| Rbbp6 | 0.8 | 1.72 | 1.75 | enough cells to score | inactive |
| Or10z1 | -0.12 | 1.47 | 1.22 | enough cells to score | inactive |
| Rgs1 | -0.59 | 1.43 | 1.22 | enough cells to score | inactive |
| Vstm2b | – | 1.31 | 1.18 | fewer than 50 cells per well; well left out of scoring | inactive |
| Thbs3 | 1.39 | 1.61 | 1.82 | enough cells to score | inactive |
| Hsf4 | -1.16 | 1.16 | 1.35 | enough cells to score | inactive |

Already shown: entries from further up.
| target gene | p65 translocation robust z-score | nuclear/cytoplasmic p65 ratio, rep 1 | nuclear/cytoplasmic p65 ratio, rep 2 | low cell count flag | Call |
| --- | --- | --- | --- | --- | --- |
| Gfm1 | -0.91 | 1.4 | 1.39 | enough cells to score | inactive |
| Gm4876 | 1.49 | 1.64 | 2.1 | enough cells to score | inactive |
| Dclre1c | -0.93 | 1.4 | 1.45 | enough cells to score | inactive |
| Cenpe | -0.56 | 1.39 | 1.31 | enough cells to score | inactive |
| Ackr4 | -0.65 | 1.47 | 1.43 | enough cells to score | inactive |
| Brms1 | 0.42 | 1.41 | 1.58 | enough cells to score | inactive |
